Results are given in words; binding and its absence hold for the method and conditions named. Binding seen in cells or lysates may run through a third protein. Some entries that bind do so weakly or less than the wild type. For part of these data: Sequences can lack the tags named with a protein. Each block holds one substance with its values, some of them ahead of it.
Tests used:
Flag-tagged SIRT1 = target: T1, Flag-tagged SIRT1 (UniProt Q923E4); assay: co-IP; mapping with deletion mutants of PIP5Kγ; transfected HEK293T cells lysed in 25 mM Tris-HCl pH 8.0, 100 mM NaCl, 2 mM EDTA, 0.2% Triton X-100 with protease inhibitors, trichostatin A and NAM; antibodies and tags of this panel not told
T1 sequence: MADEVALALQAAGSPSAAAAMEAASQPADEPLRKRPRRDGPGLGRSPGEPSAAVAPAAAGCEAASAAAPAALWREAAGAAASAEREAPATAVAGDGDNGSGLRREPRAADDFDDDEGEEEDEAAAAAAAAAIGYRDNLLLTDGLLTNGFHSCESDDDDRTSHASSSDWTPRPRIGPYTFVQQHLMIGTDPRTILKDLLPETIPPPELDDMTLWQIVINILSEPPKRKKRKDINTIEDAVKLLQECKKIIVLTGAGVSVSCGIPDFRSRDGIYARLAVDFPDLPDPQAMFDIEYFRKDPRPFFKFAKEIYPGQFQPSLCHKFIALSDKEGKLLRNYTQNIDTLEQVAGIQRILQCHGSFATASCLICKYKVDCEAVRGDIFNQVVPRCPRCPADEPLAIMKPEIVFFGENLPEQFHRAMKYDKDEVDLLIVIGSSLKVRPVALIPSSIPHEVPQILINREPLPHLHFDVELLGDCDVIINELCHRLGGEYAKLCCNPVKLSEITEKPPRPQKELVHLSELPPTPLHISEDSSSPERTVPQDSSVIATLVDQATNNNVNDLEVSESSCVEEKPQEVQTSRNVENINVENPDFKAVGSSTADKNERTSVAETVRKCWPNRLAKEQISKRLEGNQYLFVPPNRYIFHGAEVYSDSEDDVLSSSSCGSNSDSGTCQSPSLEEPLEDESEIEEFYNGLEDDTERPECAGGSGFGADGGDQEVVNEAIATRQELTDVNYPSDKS

Protein sequences, listed by entry. Tags and fused reporters are not part of them. Lines headed by an entry give the natural chain unless they say otherwise; changes in a name come on top.
UniProt Q96EB6: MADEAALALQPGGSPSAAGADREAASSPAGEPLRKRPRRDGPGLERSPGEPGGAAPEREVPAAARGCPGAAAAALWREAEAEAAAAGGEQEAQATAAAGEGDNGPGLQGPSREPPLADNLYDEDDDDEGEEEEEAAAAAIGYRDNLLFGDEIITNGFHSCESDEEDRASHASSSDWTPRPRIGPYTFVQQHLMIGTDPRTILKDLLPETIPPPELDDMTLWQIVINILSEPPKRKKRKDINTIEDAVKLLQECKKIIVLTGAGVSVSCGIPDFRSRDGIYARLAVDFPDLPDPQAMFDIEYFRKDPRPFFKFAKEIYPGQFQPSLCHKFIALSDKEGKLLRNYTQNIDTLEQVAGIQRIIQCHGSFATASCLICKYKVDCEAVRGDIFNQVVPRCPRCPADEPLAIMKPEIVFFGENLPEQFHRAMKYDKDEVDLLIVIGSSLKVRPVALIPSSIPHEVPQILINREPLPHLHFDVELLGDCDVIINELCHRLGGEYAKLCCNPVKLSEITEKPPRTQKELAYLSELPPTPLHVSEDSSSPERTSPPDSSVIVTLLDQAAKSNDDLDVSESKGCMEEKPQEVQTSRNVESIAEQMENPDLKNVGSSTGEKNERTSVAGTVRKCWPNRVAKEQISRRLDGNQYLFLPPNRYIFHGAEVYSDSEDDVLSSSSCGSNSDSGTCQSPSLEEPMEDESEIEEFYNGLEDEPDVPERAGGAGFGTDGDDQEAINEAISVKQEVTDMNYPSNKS
UniProt O70161: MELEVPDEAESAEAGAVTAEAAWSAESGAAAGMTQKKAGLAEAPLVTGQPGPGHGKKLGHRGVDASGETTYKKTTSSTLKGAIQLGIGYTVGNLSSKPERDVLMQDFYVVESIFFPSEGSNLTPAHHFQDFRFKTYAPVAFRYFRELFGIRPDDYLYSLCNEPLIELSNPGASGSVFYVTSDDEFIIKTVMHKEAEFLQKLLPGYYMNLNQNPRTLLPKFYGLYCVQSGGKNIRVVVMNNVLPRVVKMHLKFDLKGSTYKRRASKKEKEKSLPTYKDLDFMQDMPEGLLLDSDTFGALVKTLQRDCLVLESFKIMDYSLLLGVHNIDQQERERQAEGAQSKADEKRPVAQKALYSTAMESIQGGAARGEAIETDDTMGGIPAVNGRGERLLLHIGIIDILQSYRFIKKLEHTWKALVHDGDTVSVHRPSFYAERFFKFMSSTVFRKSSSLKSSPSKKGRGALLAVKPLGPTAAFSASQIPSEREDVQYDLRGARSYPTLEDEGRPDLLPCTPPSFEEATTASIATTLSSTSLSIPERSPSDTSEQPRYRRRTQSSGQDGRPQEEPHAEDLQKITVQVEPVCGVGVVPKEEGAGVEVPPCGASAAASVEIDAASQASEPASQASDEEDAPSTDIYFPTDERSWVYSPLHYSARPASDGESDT
UniProt O60331: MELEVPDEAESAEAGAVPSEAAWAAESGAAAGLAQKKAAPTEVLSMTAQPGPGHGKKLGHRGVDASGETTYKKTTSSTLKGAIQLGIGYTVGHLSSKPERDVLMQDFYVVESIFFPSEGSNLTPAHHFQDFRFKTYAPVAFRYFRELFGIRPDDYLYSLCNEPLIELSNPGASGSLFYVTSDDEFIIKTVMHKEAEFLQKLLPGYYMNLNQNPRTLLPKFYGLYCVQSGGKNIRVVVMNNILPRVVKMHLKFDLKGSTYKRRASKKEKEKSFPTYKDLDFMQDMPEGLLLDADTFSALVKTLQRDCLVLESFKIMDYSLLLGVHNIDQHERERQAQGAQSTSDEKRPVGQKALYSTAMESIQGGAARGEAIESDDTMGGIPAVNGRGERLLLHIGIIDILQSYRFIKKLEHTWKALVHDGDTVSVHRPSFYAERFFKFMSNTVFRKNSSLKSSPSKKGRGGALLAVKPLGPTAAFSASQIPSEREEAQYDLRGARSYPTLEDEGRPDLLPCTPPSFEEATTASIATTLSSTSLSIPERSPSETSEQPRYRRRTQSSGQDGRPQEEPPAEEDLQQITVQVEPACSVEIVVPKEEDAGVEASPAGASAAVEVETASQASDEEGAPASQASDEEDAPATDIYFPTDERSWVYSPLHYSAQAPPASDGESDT

[1] = target: T2, SIRT1 of the pituitary gland (cytosolic fraction) (mouse (endogenous in pituitary gland)) (UniProt Q923E4); assay: co-IP; cytosolic fraction of the pituitary gland, antibodies specific for SIRT1 and for PIP5Kγ, rabbit IgG as negative control
T2 sequence: T1 sequence

[2] = target: endogenous SIRT1 (HEK293T cells) (human (endogenous in HEK293T)) (UniProt Q96EB6); assay: co-IP; endogenous proteins of HEK293T cells, antibodies to SIRT1 and to PIP5Ks

binding (Flag-tagged SIRT1): binds
Substance: PIP5Kγ (expressed from plasmid, parent of the deletion mutants) (from UniProt O70161 1-661) (enzyme)

binding [1]: binds
Substance: PIP5Kγ of the pituitary gland (cytosolic fraction) (from UniProt O70161 1-661) (enzyme)

binding [2]: binds
Substance: endogenous PIP5Kγ (HEK293T cells) (from UniProt O60331 1-668) (enzyme)

— paper PMC2909264
